The target in experiment [1] is Polypyrimidine Tract Binding Protein 1, His-tagged (UniProt P26599). Nature of the experiment: affinity purification with mass spectrometry; 48 ug His-tagged PTBP in a 200 ul splicing reaction (2.2 mM MgCl2, 0.4 mM ATP, 20 mM creatine phosphate) with WERI retinoblastoma nuclear extract, 30 C 90 min; HisPur Ni-NTA magnetic resin overnight at 4 C; washes with 150 mM NaCl, 30 mM imidazole; eluted with 300 mM imidazole; proteins of the Buffer DG and WERI only controls removed from the lists; the extract includes RNA transcripts, so a protein may be bound directly or through RNA; only the target purified.

Sequences of proteins named here, by UniProt entry; tags and fusion partners are left off.
UniProt P26599: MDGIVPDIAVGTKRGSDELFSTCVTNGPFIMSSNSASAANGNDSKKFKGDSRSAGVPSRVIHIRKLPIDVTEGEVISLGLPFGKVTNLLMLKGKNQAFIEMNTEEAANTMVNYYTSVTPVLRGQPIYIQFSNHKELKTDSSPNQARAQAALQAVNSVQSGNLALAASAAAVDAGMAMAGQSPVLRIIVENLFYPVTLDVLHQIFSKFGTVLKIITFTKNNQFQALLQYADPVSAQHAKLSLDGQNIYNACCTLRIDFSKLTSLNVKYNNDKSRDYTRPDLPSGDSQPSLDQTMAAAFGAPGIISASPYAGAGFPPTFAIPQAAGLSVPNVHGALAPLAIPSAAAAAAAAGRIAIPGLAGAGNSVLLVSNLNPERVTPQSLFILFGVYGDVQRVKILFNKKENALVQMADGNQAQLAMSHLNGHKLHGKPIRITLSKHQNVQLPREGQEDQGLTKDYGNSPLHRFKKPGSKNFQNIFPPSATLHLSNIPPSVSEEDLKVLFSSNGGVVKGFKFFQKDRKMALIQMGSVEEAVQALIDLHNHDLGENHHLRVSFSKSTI

Experiment [2] concerns the target Polypyrimidine Tract Binding Protein 1, His-tagged, P26599. The experiment can be described thus: affinity purification with mass spectrometry; 48 ug His-tagged PTBP in a 200 ul splicing reaction (2.2 mM MgCl2, 0.4 mM ATP, 20 mM creatine phosphate) with WERI retinoblastoma nuclear extract, 30 C 90 min; HisPur Ni-NTA magnetic resin overnight at 4 C; washes with 150 mM NaCl, 30 mM imidazole; eluted with 300 mM imidazole; proteins of the Buffer DG and WERI only controls removed from the lists; the extract includes …. Conditions: remark: other sources report otherwise.

No constants are given. Whether binding was seen depends on the method and setting. In cells and extracts the contact can be indirect. These calls come from enrichment with a bait or labelling near it, and not all partners need be listed.

B1: transcriptional regulatory factor TRIM29 (protein, UniProt Q14134 1-588)
chain: MEAADASRSNGSSPEARDARSPSGPSGSLENGTKADGKDAKTTNGHGGEAAEGKSLGSALKPGEGRSALFAGNEWRRPIIQFVESGDDKNSNYFSMDSMEGKRSPYAGLQLGAAKKPPVTFAEKGELRKSIFSESRKPTVSIMEPGETRRNSYPRADTGLFSRSKSGSEEVLCDSCIGNKQKAVKSCLVCQASFCELHLKPHLEGAAFRDHQLLEPIRDFEARKCPVHGKTMELFCQTDQTCICYLCMFQEHKNHSTVTVEEAKAEKETELSLQKEQLQLKIIEIEDEAEKWQKEKDRIKSFTTNEKAILEQNFRDLVRDLEKQKEEVRAALEQREQDAVDQVKVIMDALDERAKVLHEDKQTREQLHSISDSVLFLQEFGALMSNYSLPPPLPTYHVLLEGEGLGQSLGNFKDDLLNVCMRHVEKMCKADLSRNFIERNHMENGGDHRYVNNYTNSFGGEWSAPDTMKRYSMYLTPKGGVRTSYQPSSPGRFTKETTQKNFNNLYGTKGNYTSRVWEYSSSIQNSDNDLPVVQGSSSFSLKGYPSLMRSQSPKAQPQTWKSGKQTMLSHYRPFYVNKGNGIGSNEAP
B1: the binding result in experiment [1] is “binds”.

B2: splicing factor hnRNPLL, Q8WVV9 1-542 (protein)
chain: MSSSSSSPRETYEEDREYESQAKRLKTEEGEIDYSAEEGENRREATPRGGGDGGGGGRSFSQPEAGGSHHKVSVSPVVHVRGLCESVVEADLVEALEKFGTICYVMMMPFKRQALVEFENIDSAKECVTFAADEPVYIAGQQAFFNYSTSKRITRPGNTDDPSGGNKVLLLSIQNPLYPITVDVLYTVCNPVGKVQRIVIFKRNGIQAMVEFESVLCAQKAKAALNGADIYAGCCTLKIEYARPTRLNVIRNDNDSWDYTKPYLGRRDRGKGRQRQAILGEHPSSFRHDGYGSHGPLLPLPSRYRMGSRDTPELVAYPLPQASSSYMHGGNPSGSVVMVSGLHQLKMNCSRVFNLFCLYGNIEKVKFMKTIPGTALVEMGDEYAVERAVTHLNNVKLFGKRLNVCVSKQHSVVPSQIFELEDGTSSYKDFAMSKNNRFTSAGQASKNIIQPPSCVLHYYNVPLCVTEETFTKLCNDHEVLTFIKYKVFDAKPSAKTLSGLLEWECKTDAVEALTALNHYQIRVPNGSNPYTLKLCFSTSSHL
With B2, the binding result in experiment [2] is “binds”.

The values above are taken from PMC12136456.
